From US20040054158A1 come the findings set out here.

No constants are given. Whether binding was seen depends on the method and setting. Some results given as binding are weak or reduced against the parent protein; the word gives no strength. Tags and fused reporters may be left off the sequences shown.

The target in this test is T1, mouse ICOS expressed on COS transfectants (mouse) (UniProt Q9WVS0).
T1 sequence (looked up): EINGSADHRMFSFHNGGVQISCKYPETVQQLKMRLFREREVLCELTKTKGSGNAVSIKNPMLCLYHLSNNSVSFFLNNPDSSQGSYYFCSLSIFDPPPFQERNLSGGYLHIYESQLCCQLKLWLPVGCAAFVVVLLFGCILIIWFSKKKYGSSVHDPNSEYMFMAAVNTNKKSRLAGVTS
Nature of the test: flow cytometry on COS transfectants.

B1: murine GL50-1Ig fusion protein (Fc fusion)
chain: ETEVGAMVGSNVVLSCIDPHRRHFNLSGLYVYWQIENPEVSVTYYLPYKSPGINVDSSYKNRGHLSLDSMKQGNFSLYLKNVTPQDTQEFTCRVFMNTATELVKILEEVVRLRVAANFSTPVISTSDSSNPGQERTYTCMSKNGYPEPNLYWINTTDNSLIDTALQNNTVYLNKLGLYDVISTLRLPWTSRGDVLCCVENVALHQNITSISQAESFTGNNTKNPQETHNNEEPRGPTIKPCPPCKCPAPNLEGGPSVFIFPPKIKDVLMISLSPIVTCVVVDVSEDDPDVQISWFVNNVEVHTAQTQTHREDYNSTLRVVSALPIQHQDWMSGKAFACAVNNKDLPAPIERTISKPKGSVRAPQVYVLPPPEEEMTKKQVTLTCMVTDFMPEDIYVEWTNNGKTELNYKNTEPVLDSDGSYFMYSKLRVEKKNWVERNSYSCSVVHEGLHNHHTTKSFSRTPGK
B1: the binding result is listed as “binds”.
